Results are given in words; binding and its absence hold for the method and conditions named. Some results given as binding are weak or reduced against the parent protein; the word gives no strength.
What was measured:
[1] = target: human WSX receptor (hWSXR), antigen of the phage ELISA (human) (UniProt P48357); assay: antigen-binding phage ELISA; clone #3 is one of the 18 clones
[2] = target: human WSX receptor (hWSXR), antigen of the phage ELISA (human) (UniProt P48357); assay: antigen-binding phage ELISA; clone #17 is one of the 18 clones

Chains of the proteins cited; added tags and fusions are not shown. Lines headed by an entry give the natural chain unless they say otherwise; changes in a name come on top.
UniProt P48357: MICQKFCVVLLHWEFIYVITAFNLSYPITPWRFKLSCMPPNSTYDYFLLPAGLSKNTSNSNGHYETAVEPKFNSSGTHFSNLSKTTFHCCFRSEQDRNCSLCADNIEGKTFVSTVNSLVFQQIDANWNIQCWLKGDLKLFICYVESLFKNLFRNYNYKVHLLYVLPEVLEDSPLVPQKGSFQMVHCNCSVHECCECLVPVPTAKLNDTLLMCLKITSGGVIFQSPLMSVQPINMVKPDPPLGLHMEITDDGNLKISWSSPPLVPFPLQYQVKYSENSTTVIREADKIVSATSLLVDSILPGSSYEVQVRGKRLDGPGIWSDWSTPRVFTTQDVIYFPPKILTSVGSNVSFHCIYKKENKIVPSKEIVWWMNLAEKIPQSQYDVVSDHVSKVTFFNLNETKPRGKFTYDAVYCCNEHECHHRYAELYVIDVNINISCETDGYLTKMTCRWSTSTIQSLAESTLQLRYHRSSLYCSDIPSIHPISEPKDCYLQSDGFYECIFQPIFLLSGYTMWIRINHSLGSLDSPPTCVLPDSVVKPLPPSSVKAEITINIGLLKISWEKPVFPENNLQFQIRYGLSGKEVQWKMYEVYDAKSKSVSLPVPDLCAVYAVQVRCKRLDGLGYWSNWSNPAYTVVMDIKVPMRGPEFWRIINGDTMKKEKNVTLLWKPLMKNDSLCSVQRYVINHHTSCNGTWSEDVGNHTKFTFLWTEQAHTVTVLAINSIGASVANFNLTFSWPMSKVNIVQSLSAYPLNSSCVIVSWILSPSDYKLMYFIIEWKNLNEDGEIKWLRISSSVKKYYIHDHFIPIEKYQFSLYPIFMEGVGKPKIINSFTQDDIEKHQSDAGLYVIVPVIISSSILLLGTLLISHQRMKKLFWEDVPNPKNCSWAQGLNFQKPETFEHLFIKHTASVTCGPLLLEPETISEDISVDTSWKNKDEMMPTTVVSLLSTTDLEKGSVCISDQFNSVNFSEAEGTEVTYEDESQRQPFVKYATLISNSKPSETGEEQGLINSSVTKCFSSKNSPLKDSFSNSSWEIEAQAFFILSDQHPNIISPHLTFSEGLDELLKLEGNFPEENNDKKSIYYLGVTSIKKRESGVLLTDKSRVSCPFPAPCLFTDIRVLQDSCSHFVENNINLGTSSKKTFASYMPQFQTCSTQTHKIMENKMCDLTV

B1: agonist antibody clone #3 scFv (scFv)
scFv: EVQLVQSGAEVKKPGASVKVSCKASGYTFTGYYMYWVRQAPGQGLEWMGWINPNSGGTNYAQKFQGRVTMTRDTSIGTAYMELSRLSSDDTAVYYCARDRYYGSSAYHRGSYYMDVWGRGTLVTVSSGGGGTGGGGSGGGGSSELTQDPAVSVALGQTVRITCQGDSLRSYYASWYQQKPGQAPVLVIYGKNNRPSGIPDRFSGSSSGNTASLTITGAQAEDEADYYCNSRDSSGNHVVFGGGTKLTVL
- binding [1]: binds

B2: agonist antibody clone #17 scFv (scFv)
scFv: QVRLQQSGGGLVQPGRSLRLSCAASGFTFDDYAMHWVRQAPGKGLEWVSGMTWNSGSIGYADSVKGRFTISRDNAKNSLYLQMNSLRAEDTAVYYCAREPHNTDAFDIWGRGTLVTVSSGGGGPGGGGSGGGGSDVVMTQSPSFLSAFVGDTITITCRASQGIYNYLAWYQQKPGKAPKLLIYAASTLQSGVPSRFSGSGSGTEFTLTISSLQPEDFGTYYCQQLISYPLTFGGGTKVEIK
- binding [2]: binds
